The other results are listed elsewhere or left out. Small differences around the control level are noise.

In this test the test system is ppGalNAc-T2 sensor. The test is described as follows: T2 sensor activation Q score (MG/GFP ratio z-score vs DMSO controls) (SD units); higher = more sensor activation (inhibition of ppGalNAc-T2 glycosylation). To be noted: HEK293 sensor cells; 10 µM; 6 h. The method, then:
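Cells were treated with compound at 10 uM for 6 h, then MG/GFP ratio was read by flow cytometry (10,000 cells per well, duplicate wells). Q = (R - R_neg)/SD_neg relative to DMSO vehicle controls; the signal rises when the glycosyltransferase is inhibited.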
Regarding `COc1ccc(N2C(=O)CC(=O)NC2=O)cc1`, the “T2 sensor activation Q score” value was 0.515. As for `Cc1ccc(C)c(CN2CCN(c3ccccc3)CC2)c1`, the “T2 sensor activation Q score” value is -0.38. As for `COc1ccc(/C=C/C2=CCN(C)CC2)cc1`, the “T2 sensor activation Q score” value amounted to 0.01.

For `Fc1ccc(N2CCN(Cc3ccccc3)CC2)cc1`, the “T2 sensor activation Q score” value was -0.98. The result for `Fc1ccc(CN2CCN(c3cccc(Cl)c3)CC2)cc1` reads -0.855.

In the case of `CN(C)C=NC(=O)CN1CCCC1=O`, the “T2 sensor activation Q score” value was -0.255. The same measure for `COc1ccc(N2CCN(Cc3cc(Br)ccc3OC)CC2)cc1`: -0.195. The result for `CCOc1ccccc1N1CCN(Cc2cccc(C)c2)CC1` reads 0.655; that for `CC(C)N1CCN(Cc2cccc(F)c2)CC1`, -0.63; that for `COc1ccc(CN2CCN(c3ccccc3)CC2)c(OC)c1C`, -0.715.

`COc1cc(CN2CCN(C)CC2)c([N+](=O)[O-])cc1OC`: the “T2 sensor activation Q score” value was -0.315.

These data come from the supplement of paper PMC5407854, “Inhibitor of ppGalNAc-T3-mediated O-glycosylation blocks cancer cell invasiveness and lowers FGF23 levels” (eLife, 2017).
